Where two headings read alike, the source gives them in different places. Results are given in words; binding and its absence hold for the method and conditions named. Binding seen in cells or lysates may run through a third protein. Here binding means that the protein was enriched with, or labelled near, the bait; the list need not be complete. Each block holds one molecule with its values, some of them ahead of it.
How the values were obtained:
FLAG-Cdh1 [1] = molecular target: FLAG-Cdh1 (UniProt Q9UM11); assay: affinity purification with mass spectrometry
FLAG-Cdh1 [2] = molecular target: FLAG-Cdh1 (UniProt Q9UM11); assay: affinity purification with mass spectrometry; remark: listed apart in the source

Chains of the proteins cited; added tags and fusions are not shown.
UniProt Q9UM11: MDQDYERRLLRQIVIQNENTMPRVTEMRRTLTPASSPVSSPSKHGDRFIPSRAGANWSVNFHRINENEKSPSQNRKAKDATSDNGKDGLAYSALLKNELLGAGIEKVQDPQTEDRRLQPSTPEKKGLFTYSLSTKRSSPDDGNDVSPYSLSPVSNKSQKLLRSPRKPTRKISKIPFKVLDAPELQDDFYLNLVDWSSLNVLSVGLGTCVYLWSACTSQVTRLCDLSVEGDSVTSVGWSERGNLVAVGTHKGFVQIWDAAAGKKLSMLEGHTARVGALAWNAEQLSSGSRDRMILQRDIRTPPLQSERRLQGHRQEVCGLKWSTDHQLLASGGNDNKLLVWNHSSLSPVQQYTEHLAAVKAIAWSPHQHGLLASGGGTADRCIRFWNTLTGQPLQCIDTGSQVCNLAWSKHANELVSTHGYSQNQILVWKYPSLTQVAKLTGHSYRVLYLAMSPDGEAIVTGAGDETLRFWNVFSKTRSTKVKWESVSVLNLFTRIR
UniProt P52732: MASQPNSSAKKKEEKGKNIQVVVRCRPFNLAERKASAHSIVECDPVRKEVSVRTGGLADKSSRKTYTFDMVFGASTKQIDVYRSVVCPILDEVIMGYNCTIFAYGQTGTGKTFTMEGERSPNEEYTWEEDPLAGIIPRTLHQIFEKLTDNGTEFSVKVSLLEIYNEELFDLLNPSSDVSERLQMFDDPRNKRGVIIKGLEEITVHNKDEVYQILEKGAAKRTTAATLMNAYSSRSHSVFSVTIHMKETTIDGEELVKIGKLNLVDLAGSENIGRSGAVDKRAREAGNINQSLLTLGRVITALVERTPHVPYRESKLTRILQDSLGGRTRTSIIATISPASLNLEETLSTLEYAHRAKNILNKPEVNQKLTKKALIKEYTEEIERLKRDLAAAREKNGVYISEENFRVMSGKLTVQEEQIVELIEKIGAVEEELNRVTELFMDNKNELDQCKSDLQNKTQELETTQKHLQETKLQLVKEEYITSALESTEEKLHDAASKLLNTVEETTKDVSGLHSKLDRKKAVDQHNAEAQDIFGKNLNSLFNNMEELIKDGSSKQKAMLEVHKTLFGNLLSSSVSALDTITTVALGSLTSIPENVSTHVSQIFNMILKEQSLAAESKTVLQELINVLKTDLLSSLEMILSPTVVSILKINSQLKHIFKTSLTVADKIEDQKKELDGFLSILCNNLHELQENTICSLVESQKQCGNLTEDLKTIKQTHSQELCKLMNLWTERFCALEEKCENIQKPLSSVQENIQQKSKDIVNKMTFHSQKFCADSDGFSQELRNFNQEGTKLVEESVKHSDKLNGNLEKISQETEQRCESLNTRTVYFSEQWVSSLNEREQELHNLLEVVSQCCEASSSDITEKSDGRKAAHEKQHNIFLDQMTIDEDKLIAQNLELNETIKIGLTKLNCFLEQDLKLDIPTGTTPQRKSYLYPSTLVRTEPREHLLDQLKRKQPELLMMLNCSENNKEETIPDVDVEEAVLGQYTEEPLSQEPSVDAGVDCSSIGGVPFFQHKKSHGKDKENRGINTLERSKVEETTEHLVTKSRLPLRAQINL
UniProt Q9HAW4: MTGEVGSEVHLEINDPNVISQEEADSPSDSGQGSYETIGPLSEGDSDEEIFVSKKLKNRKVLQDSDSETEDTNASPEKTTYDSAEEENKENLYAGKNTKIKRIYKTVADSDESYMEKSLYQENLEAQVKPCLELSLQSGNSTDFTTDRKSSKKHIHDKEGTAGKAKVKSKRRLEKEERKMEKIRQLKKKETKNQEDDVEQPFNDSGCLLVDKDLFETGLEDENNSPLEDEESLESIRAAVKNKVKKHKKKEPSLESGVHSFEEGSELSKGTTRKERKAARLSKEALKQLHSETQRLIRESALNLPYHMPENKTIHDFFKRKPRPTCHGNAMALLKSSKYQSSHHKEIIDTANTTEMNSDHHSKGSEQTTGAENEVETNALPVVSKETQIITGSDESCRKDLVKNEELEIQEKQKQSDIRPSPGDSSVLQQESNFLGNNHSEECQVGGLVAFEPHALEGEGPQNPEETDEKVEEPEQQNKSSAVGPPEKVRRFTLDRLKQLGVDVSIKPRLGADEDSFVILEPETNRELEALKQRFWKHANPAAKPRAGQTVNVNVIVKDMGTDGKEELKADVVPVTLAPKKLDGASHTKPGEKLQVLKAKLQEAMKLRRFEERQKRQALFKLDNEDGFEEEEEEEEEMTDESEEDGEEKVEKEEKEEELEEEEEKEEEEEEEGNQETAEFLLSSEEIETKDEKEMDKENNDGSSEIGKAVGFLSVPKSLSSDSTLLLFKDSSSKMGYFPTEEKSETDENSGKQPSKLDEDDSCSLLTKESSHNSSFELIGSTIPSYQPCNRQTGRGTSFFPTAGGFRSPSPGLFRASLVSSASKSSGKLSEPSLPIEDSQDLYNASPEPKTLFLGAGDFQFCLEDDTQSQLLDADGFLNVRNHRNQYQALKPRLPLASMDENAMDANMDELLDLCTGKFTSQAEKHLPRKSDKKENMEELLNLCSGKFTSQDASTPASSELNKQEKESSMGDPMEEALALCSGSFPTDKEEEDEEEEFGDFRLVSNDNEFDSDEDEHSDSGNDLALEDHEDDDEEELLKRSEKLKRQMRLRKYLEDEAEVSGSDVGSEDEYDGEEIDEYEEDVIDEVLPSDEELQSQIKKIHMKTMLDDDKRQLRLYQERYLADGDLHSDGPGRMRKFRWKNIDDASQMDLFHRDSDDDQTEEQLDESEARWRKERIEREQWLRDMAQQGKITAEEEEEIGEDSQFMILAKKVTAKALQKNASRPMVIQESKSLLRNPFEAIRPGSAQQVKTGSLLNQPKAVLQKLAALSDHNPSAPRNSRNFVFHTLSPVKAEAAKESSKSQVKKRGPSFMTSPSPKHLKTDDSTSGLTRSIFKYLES
UniProt P31350: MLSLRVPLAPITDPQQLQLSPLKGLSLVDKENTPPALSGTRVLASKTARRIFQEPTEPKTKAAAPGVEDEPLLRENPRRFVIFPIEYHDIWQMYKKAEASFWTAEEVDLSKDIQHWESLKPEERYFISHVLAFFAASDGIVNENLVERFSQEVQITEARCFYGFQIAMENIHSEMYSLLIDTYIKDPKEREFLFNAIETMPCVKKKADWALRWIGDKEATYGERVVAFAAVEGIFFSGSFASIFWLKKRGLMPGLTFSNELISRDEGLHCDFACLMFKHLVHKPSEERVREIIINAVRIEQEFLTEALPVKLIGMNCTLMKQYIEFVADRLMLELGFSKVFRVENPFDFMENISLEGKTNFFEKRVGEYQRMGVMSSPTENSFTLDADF

Molecule: Kif11 (from UniProt P52732 1-1056)
binding (FLAG-Cdh1 [1]): binds

B1: Kif22/KID (protein, UniProt Q14807 1-665)
chain: MAAGGSTQQRRREMAAASAAAISGAGRCRLSKIGATRRPPPARVRVAVRLRPFVDGTAGASDPPCVRGMDSCSLEIANWRNHQETLKYQFDAFYGERSTQQDIYAGSVQPILRHLLEGQNASVLAYGPTGAGKTHTMLGSPEQPGVIPRALMDLLQLTREEGAEGRPWALSVTMSYLEIYQEKVLDLLDPASGDLVIREDCRGNILIPGLSQKPISSFADFERHFLPASRNRTVGATRLNQRSSRSHAVLLVKVDQRERLAPFRQREGKLYLIDLAGSEDNRRTGNKGLRLKESGAINTSLFVLGKVVDALNQGLPRVPYRDSKLTRLLQDSLGGSAHSILIANIAPERRFYLDTVSALNFAARSKEVINRPFTNESLQPHALGPVKLSQKELLGPPEAKRARGPEEEEIGSPEPMAAPASASQKLSPLQKLSSMDPAMLERLLSLDRLLASQGSQGAPLLSTPKRERMVLMKTVEEKDLEIERLKTKQKELEAKMLAQKAEEKENHCPTMLRPLSHRTVTGAKPLKKAVVMPLQLIQEQAASPNAEIHILKNKGRKRKLESLDALEPEEKAEDCWELQISPELLAHGRQKILDLLNEGSARDLRSLQRIGPKKAQLIVGWRELHGPFSQVEDLERVEGITGKQMESFLKANILGLAAGQRCGAS
binding (FLAG-Cdh1 [2]): binds weakly

Now from value to molecule:

binding (FLAG-Cdh1 [1]): binds
Molecule: Claspin (from UniProt Q9HAW4 1-1339)

binding (FLAG-Cdh1 [1]): binds
Molecule: Rrm2 (from UniProt P31350 1-389)

From paper doi:10.1101/2020.04.09.033621
